The text below walks through data of the supplement of paper PMC12819154, “High-throughput peptide-centric local stability assay extends protein–ligand identification to membrane proteins, tissues and bacteria” (Nature Structural & Molecular Biology, 2025).

Amino acid sequences for entries named in this document (tags omitted). A change or cut given only in a name is not applied to a line headed by its entry.
UniProt A6NGK3: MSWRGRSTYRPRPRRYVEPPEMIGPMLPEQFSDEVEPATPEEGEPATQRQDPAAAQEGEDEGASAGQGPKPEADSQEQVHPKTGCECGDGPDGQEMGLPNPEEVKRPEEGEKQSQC
UniProt A6NDY0: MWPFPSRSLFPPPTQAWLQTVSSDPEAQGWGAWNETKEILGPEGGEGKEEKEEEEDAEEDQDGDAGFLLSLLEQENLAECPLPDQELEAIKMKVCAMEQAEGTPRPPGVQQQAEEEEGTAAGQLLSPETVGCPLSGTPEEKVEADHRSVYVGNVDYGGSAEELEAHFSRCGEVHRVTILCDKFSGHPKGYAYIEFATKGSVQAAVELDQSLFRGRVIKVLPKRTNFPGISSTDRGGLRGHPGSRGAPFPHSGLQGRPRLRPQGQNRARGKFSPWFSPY
UniProt A2RTY3: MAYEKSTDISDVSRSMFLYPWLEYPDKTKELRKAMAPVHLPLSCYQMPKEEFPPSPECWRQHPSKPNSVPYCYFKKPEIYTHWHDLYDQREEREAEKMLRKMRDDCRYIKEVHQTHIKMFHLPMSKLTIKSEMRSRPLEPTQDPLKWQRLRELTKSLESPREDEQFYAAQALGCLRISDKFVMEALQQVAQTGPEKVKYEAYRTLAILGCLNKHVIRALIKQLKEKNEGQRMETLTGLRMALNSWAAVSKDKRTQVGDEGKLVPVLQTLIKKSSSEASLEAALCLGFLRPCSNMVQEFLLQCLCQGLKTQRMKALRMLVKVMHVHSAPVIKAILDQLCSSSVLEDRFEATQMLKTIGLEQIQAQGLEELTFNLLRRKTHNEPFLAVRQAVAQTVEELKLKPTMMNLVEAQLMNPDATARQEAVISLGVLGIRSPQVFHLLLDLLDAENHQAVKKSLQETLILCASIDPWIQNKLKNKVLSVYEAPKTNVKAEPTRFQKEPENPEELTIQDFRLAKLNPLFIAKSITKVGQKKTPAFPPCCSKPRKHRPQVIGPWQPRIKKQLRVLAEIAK
UniProt A2RTX5: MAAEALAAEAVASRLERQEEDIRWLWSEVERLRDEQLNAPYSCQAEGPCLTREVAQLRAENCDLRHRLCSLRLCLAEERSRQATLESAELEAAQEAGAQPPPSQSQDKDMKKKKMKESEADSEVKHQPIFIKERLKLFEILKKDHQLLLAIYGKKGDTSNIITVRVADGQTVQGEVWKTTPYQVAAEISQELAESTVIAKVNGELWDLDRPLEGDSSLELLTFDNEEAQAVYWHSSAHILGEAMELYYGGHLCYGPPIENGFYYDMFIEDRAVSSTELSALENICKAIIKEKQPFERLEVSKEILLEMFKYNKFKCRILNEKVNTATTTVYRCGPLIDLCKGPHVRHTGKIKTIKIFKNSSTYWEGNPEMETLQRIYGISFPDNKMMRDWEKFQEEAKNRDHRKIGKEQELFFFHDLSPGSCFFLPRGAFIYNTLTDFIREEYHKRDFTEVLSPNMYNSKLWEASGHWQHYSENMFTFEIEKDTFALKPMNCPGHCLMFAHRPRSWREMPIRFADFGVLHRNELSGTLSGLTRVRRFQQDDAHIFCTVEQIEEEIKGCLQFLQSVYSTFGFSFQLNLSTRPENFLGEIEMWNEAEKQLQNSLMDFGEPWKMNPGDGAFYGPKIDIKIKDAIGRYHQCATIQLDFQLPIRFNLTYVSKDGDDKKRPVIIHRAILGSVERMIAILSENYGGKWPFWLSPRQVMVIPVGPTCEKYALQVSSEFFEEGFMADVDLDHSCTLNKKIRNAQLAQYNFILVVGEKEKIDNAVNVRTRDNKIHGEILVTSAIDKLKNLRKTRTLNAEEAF
UniProt A6NIH7: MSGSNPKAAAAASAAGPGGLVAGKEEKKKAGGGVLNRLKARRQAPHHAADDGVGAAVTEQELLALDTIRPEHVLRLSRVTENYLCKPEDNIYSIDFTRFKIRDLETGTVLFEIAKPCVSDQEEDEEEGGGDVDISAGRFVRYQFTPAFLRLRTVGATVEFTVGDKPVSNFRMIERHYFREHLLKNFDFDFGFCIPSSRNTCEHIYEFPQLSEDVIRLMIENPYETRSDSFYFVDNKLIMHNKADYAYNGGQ
UniProt A7MCY6, whole entry: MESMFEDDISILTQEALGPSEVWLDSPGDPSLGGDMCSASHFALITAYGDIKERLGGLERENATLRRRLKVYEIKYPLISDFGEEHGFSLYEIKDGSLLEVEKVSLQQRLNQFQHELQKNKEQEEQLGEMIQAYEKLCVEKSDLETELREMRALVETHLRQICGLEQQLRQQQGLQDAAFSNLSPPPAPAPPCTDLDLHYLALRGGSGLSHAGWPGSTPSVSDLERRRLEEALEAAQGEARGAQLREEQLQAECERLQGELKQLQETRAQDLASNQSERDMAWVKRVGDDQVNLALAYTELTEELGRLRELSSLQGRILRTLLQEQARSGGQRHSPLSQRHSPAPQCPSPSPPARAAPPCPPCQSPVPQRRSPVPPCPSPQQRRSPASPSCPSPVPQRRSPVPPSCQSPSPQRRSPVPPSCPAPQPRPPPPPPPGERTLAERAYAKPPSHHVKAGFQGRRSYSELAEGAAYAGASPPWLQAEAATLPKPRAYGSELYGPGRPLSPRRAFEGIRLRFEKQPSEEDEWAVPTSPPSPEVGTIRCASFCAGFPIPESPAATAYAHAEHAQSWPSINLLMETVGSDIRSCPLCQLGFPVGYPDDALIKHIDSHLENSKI
UniProt A6NMK7: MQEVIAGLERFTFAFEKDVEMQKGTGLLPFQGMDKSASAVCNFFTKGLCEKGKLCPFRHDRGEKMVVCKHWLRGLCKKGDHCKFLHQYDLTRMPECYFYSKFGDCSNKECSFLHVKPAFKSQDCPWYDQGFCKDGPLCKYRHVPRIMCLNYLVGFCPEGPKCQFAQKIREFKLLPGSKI
UniProt A6NEH6: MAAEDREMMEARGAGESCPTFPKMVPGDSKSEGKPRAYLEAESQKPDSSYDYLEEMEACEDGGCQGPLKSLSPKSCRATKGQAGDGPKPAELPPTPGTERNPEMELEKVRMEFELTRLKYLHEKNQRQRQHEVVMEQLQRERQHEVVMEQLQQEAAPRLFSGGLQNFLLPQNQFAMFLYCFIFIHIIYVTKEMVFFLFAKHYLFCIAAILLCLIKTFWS
UniProt A2RRP1: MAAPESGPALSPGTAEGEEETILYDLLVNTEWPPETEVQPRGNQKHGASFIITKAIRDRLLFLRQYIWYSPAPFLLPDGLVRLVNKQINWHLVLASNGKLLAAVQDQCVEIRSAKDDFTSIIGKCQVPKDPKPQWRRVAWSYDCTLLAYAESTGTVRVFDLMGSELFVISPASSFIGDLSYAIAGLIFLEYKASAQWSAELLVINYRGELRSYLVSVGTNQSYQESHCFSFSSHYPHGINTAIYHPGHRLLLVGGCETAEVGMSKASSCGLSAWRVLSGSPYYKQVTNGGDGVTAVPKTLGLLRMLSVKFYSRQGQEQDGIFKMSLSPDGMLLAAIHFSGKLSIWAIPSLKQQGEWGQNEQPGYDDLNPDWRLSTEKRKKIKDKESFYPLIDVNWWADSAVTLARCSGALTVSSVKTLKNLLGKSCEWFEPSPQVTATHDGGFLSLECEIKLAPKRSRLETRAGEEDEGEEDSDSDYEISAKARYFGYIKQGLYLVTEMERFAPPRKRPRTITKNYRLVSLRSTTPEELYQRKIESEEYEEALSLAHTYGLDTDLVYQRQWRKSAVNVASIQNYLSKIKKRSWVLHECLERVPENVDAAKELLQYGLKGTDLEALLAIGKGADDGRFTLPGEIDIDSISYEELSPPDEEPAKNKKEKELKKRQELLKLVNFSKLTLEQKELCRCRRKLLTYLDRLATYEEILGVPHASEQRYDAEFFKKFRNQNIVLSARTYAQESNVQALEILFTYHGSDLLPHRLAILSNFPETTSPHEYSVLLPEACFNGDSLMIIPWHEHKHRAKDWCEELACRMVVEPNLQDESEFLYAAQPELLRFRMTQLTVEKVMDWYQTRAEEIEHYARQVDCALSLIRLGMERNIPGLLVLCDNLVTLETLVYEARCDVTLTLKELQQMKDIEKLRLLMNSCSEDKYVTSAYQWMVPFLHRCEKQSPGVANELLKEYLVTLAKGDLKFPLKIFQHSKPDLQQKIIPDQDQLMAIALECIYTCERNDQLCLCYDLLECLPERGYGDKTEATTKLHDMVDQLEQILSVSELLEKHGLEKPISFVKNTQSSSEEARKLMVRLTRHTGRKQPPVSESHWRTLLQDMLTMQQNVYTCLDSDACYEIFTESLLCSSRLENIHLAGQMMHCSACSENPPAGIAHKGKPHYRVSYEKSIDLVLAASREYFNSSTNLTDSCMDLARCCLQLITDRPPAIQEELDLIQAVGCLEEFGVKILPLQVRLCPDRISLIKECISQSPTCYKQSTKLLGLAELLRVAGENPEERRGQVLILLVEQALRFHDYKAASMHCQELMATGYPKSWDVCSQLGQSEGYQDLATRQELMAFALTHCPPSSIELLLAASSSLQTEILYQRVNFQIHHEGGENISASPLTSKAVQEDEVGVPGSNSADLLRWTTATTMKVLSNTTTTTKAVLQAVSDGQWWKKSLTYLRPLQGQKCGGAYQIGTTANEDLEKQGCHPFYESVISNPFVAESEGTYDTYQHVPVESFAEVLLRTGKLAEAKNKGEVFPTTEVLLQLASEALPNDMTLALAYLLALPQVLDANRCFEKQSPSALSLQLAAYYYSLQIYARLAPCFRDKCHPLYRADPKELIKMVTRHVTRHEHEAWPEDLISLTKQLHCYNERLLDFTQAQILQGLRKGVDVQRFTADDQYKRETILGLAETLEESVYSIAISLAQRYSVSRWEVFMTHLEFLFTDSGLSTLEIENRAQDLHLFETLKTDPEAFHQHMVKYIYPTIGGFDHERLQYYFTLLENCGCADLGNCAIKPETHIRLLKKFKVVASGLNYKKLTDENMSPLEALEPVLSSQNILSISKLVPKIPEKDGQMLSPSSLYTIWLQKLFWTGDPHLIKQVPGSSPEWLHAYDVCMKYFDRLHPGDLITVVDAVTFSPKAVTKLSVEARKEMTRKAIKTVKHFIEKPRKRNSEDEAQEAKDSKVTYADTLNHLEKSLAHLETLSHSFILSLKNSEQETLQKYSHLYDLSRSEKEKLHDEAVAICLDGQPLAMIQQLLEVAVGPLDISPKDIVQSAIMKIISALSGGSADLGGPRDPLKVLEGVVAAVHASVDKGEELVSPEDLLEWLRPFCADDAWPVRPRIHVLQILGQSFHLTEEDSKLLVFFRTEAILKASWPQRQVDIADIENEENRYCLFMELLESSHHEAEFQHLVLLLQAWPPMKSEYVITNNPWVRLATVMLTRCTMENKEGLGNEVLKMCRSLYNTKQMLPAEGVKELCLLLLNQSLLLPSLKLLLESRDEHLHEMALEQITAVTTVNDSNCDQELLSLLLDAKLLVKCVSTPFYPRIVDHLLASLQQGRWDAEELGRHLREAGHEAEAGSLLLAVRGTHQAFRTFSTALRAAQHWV
UniProt A1L429: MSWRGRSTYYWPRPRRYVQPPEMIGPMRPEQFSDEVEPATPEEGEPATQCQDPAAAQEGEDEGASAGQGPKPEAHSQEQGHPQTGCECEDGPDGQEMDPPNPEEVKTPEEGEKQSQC
UniProt A8K855: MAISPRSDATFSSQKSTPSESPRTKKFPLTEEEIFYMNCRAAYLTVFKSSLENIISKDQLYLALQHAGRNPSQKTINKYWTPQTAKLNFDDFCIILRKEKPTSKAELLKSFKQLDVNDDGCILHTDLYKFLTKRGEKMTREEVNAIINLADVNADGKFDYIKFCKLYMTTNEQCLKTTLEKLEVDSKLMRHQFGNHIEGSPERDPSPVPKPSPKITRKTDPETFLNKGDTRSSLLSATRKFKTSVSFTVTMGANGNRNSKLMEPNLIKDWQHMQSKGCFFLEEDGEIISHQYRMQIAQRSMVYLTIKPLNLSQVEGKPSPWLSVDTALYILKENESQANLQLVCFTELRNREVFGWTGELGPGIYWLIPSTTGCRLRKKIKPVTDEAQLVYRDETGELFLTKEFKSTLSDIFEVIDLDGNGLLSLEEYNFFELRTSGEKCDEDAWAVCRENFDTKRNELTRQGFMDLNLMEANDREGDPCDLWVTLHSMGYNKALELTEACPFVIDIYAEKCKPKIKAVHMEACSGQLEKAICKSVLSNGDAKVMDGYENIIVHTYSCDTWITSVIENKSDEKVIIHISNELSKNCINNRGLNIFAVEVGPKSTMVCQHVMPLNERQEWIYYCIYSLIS
UniProt A4D126: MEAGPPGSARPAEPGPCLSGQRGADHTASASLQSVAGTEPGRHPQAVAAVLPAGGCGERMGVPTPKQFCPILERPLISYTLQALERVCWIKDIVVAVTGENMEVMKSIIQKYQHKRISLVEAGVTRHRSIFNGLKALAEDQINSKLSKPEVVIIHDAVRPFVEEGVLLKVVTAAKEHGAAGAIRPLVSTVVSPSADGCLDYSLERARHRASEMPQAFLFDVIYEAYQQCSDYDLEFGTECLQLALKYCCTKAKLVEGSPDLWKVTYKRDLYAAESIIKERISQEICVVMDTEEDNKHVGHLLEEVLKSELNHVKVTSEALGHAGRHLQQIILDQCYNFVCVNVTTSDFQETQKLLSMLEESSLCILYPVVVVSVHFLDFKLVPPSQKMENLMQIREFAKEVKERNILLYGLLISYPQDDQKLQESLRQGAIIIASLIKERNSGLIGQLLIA

The other results are listed elsewhere or left out. Most values lie at the level of the controls, where differences are scatter.

Compound in the assay: Cc1nc(Nc2ncc(C(=O)Nc3c(C)cccc3Cl)s2)cc(N2CCN(CCO)CC2)n1 [dasatinib]
Briefly: log2 fold change of tryptic peptide abundance, ligand vs vehicle (limited proteolysis) (log2 ratio); higher = more trypsin-susceptible (destabilized). As to conditions: ligand concentration: 5 uM; sample: K562 cleared lysate.
Consider “POM121C (peptide sequence: DRGTLPDR, peptide start residue: 193) (UniProt A8CG34)”, for which the log2 fold change is -0.123.
The value for “UniProt A6NGK3 (peptide sequence: PEEGEKQSQC, peptide start residue: 107)” was -0.0574; that for “UniProt A6NDY0 (peptide sequence: VTILCDKFSGHPK, peptide start residue: 201)” was 0.0406.
On to “A0A087WWU0 (peptide sequence: WDEEAQDAAGEEEKEQEKEK, peptide start residue: 257)”, for which the log2 fold change amounted to 0.434.
The value for “ZNF316 (peptide sequence: RTHTGERPFPCPECGAR, peptide start residue: 739) (UniProt A6NFI3)” was 0.644; that for “UniProt A2RTY3 (peptide sequence: WQRLRELTK, peptide start residue: 147)” was -0.0171.
The value for “TARSL2 (peptide sequence: ESEADSEVKHQPIFIK, peptide start residue: 117) (UniProt A2RTX5)” was -1.33.
The value for “UniProt A6NER0 (peptide sequence: KGDVPPPAK, peptide start residue: 354)” was 0.0278; that for “UniProt A6NDI0 (peptide sequence: IDGEDGLFLLGCVKNDIQR, peptide start residue: 371)” was 0.103; that for “A0A1B0GVG4 (peptide sequence: LNVLEAEMSPQRRVPR, peptide start residue: 185), A0A1B0GVG4” was -0.0288.
Take “UniProt A6NIE6 (peptide sequence: AAPLLHTR, peptide start residue: 2)”: the log2 fold change is 0.0838.
The value for “UNC119B (peptide sequence: AAAAASAAGPGGLVAGKEEK, peptide start residue: 8) (UniProt A6NIH7)” was 0.0605; that for “A0A2R8Y4L2 (peptide sequence: IVIQKYHTVNGHNCEVR, peptide start residue: 162), A0A2R8Y4L2” was 0.397; that for “TBKBP1 (peptide sequence: GAQLREEQLQAECER, peptide start residue: 242) (UniProt A7MCY6)” was -0.415.
The value for “UniProt A6NMK7 (peptide sequence: MPECYFYSK, peptide start residue: 93)” was 0.0552; that for “UniProt A6NEH6 (peptide sequence: MEFELTR, peptide start residue: 111)” was 0.206.
The value for “UniProt A4D2B8 (peptide sequence: AIKPIDRK, peptide start residue: 14)” was 0.0203; that for “UniProt A3KMH1 (peptide sequence: LKEELQLSDEQLQKR, peptide start residue: 553)” was -0.638; that for “UniProt A2RRP1 (peptide sequence: QVDCALSLIR, peptide start residue: 859)” was 0.539.
For “UniProt A1L429 (peptide sequence: STYYWPR, peptide start residue: 7)”, the log2 fold change is -0.0322.
The value for “A0A590UK10 (peptide sequence: LFPCADDLLETHSHFLAR, peptide start residue: 491)” was -0.665; that for “A0A1W2PQ72 (peptide sequence: ASDEDCQLR, peptide start residue: 158), A0A1W2PQ72” was -0.37.
As to “A0A6I8PU40 (peptide sequence: LFLLLWHPALGAQARPPR, peptide start residue: 27), A0A6I8PU40”, the log2 fold change was -0.0738.
Consider “C5orf51 (peptide sequence: ASAALEKLK, peptide start residue: 40) (UniProt A6NDU8)”, for which the log2 fold change was -0.29.
Take “ANKRD36 (peptide sequence: KPSLEATSDEK, peptide start residue: 924) (UniProt A6QL64)”: the log2 fold change was 0.529.
The value for “EFCAB7 (peptide sequence: SDATFSSQK, peptide start residue: 7) (UniProt A8K855)” was -1.06; that for “A0A024RBG1 (peptide sequence: TYDREGFK, peptide start residue: 11), A0A024RBG1” was -0.18; that for “CCDC88B (peptide sequence: AQELLLQSQR, peptide start residue: 1015) (UniProt A6NC98)” was 0.0811.
The value for “MEX3A (peptide sequence: VHQPGCKPLSTFR, peptide start residue: 323) (UniProt A1L020)” was 0.12; that for “A0A7P0TAN4 (peptide sequence: VLSNATSIANH, peptide start residue: 631)” was 0.159.
The value for “FBLL1 (peptide sequence: IVALNAHTFLR, peptide start residue: 245) (UniProt A6NHQ2)” was 0.0433; that for “CRPPA (peptide sequence: VTSEALGHAGR, peptide start residue: 315) (UniProt A4D126)” was 0.333.
Consider “GTPBP10 (peptide sequence: QISVADLPGLIEGAHMNK, peptide start residue: 197) (UniProt A4D1E9)”, for which the log2 fold change is 0.266.
